Literature values, collected in US20210322386A1, “METHODS OF DELAYING AND REVERSING ALZHEIMER'S DISEASE PROGRESSION” (Loma Linda University, priority 2018, published 2021).
At least one compound was matched to its structure with a doubt left.

Molecular target: T1, CYP27A1 enzyme (Homo sapiens, UniProt Q02318)
T1 sequence (Q02318 34-531): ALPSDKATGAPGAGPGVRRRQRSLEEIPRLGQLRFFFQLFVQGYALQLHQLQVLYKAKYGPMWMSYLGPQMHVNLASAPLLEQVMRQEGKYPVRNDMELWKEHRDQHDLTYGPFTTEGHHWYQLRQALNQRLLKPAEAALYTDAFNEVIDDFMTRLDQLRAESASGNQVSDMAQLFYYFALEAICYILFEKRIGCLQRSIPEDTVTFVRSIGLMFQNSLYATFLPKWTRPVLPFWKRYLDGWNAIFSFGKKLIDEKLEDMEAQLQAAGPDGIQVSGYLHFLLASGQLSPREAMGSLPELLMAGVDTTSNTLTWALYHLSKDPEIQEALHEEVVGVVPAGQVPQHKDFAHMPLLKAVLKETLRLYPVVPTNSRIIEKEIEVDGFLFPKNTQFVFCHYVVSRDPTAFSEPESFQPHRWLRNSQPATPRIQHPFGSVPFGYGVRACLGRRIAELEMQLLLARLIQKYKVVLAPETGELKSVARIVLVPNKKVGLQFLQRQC
Conditions: from Mast et al., Mol. Pharmacol., 2015; cited from earlier work

Structure (SMILES): CC(O)(CS(=O)(=O)c1ccc(F)cc1)C(=O)Nc1ccc(C#N)c(C(F)(F)F)c1 (stereo not shown) [bicalutamide]
- inhibition of the CYP27A1 enzyme: Inhibitors of the CYP27A1 enzyme
